Test results published in the supplement of paper PMC3334620.
The full ranking holds about 33,000 sequences; the median of “E-score (-0.5 to 0.5)” is about -0.016, and the highest 2% start at about 0.3. The list shows a part of the results.

The sequences below were run against T1, Yer184c (UniProt P39961) (assay: PBM E-score (8-mer binding enrichment) (E-score (-0.5 to 0.5)); higher = stronger / more preferred TF binding). Settings: protein concentration: 100 nM; construct: GST-full length.
T1 sequence: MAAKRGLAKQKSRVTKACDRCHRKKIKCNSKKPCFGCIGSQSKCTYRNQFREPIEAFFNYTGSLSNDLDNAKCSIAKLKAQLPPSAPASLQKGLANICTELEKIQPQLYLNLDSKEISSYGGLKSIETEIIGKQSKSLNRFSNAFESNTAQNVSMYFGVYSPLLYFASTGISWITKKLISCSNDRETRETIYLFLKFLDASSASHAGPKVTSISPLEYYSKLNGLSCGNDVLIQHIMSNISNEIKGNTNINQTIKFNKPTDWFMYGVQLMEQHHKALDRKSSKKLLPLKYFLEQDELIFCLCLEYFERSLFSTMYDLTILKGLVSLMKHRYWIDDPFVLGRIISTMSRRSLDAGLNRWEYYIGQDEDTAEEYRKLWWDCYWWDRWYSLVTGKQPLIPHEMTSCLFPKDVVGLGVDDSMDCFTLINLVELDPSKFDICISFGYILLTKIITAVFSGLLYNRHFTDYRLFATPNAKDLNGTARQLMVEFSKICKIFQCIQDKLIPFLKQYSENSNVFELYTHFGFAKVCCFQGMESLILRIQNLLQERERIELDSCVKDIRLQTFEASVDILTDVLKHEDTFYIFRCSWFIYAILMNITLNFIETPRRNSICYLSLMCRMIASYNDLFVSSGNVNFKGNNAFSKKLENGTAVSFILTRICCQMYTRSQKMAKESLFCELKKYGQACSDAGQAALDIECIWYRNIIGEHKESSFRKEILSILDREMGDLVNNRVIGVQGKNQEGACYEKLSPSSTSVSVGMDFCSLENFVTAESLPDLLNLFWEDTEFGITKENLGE
Outline: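 Yeast transcription factors, full-length or as DNA-binding domains, were expressed with a GST tag using PURExpress in vitro transcription/translation. At about 100-200 nM they were applied to universal all-10-mer Agilent arrays, double-stranded by primer extension on fresh or once-stripped slides. Fluorescent anti-GST detected bound protein, and masliner normalised the scans. E-scores for ungapped eight-base words, pooled with reverse complements, came from the Universal PBM Analysis Suite.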

Row | Sequence | PBM E-score
1 | ACAACCAA | -0.146
2 | GAGCATAC | -0.0747
3 | AGTCCCAC | -0.204
4 | CGAATTCC | 0.155
5 | ATGCAATA | -0.11
6 | GCAACAAC | -0.0398
7 | CGAAATAA | 0.255
8 | TCACTTCA | -0.114
9 | ACATATTA | 0.303
10 | CTGGTAAG | 0.0165
11 | AGGTTTGA | -0.124
12 | AAGAGGAA | 0.23
13 | GATGCGCA | -0.132
14 | GGCGGTAC | -0.0204
15 | ATGTGTGG | -0.0465
16 | TCAGCGCA | -0.0396
17 | TCTCTCAA | 0.148
18 | AGACAACA | 0.0565
19 | ACAAATAT | 0.294
20 | GGAGCGTA | 0.00527
21 | AAACTAAC | 0.186
22 | ATTAGTCC | 0.0928
23 | AAGACACC | -0.0492
24 | ACTCGTTA | -0.115
25 | ACACGAAC | 0.104

Row | Sequence | PBM E-score
26 | CGTTTCAC | 0.135
27 | ATCGTCAT | -0.0179
28 | CACTAACA | -0.0483
29 | CCCGTACG | -0.167
30 | ACGACTGG | -0.133
31 | CCTGCCTC | -0.26
32 | CCTTCAAC | -0.11
33 | CGGGGCAA | -0.0316
34 | GCTTGGCC | -0.0475
35 | CTAGAATC | -0.0424
36 | CTGTCACC | -0.00626
37 | CTTTAAAG | 0.0852
38 | CATGTCAG | -0.123
39 | AGTTGACG | 0.0095
40 | AGTGAGCC | -0.191
41 | GATCAAAC | 0.0397
42 | GAAGCCTA | 0.0682
43 | TCAGCCCA | -0.171
44 | CATCACTC | -0.0441
45 | GGGAGGAC | -0.0985
46 | CGGACACA | 0.139
47 | ACCGAAGT | 0.136
48 | ATGCCTCC | -0.228
49 | CCCTCAGA | -0.323
50 | AATAGTCC | -0.0591

Row | Sequence | PBM E-score
51 | GAACCCCC | -0.364
52 | AATTTCCT | 0.114
53 | AGACTATA | 0.155
54 | CAGGATCC | -0.128
55 | CACGGACG | 0.236
56 | CGCTTGCC | -0.0496
57 | TTAGAGAA | -0.0611
58 | AGTAAACC | -0.0783
59 | CAATTAAA | 0.0731
60 | CGACGTCA | -0.015
61 | AATATCCT | 0.0503
62 | CCGGTCAG | 0.0577
63 | ATCCGGTC | 0.214
64 | GTCCATAA | -0.116
65 | GGGGCAAA | -0.29
66 | GCCGAAGA | 0.315
67 | GCCTAGCA | -0.128
68 | ACTGCAAC | -0.208
69 | CATCTAAA | 0.123
70 | GACATGTA | 0.0416
71 | AAATGCCT | 0.017
72 | ACGTCTTA | -0.153
73 | CACGCATA | -0.217
74 | AGAATCTG | -0.0234
75 | GCTAAAAA | 0.0777

Retrieved one by one from the entries so far (2):
Row | Sequence | PBM E-score
55 | CACGGACG | 0.236
51 | GAACCCCC | -0.364

2 entries from above in a different format:
Row	Sequence	PBM E-score
61	AATATCCT	0.0503
71	AAATGCCT	0.017

(continued)

Row | Sequence | PBM E-score
76 | CAGAGTAC | 0.0302
77 | TAACTAAA | 0.0945
78 | GACGGGCC | -0.0717
79 | CGCTGCCG | 0.159
80 | CCGCGGCC | 0.374
81 | AGCGTTTA | -0.115
82 | TGCCTAAA | -0.1
83 | CAACGCTG | -0.0457
84 | ACTAGGTG | -0.301
85 | GAAGTGAA | -0.0113
86 | GTCCGCTA | 0.103
87 | AGCGCCCA | -0.343
88 | GCGCCGCA | 0.166
89 | ATTAGGTA | 0.0954
90 | GCGCATAA | -0.123
91 | GCATAGGA | -0.0473
92 | ATCTTACC | 0.107
93 | ATCTCCCA | -0.053
94 | CAGGCATA | -0.221
95 | GATAGCAC | -0.0951
96 | GAAGCCGC | 0.177
97 | CGGAACAG | 0.338
98 | TCCCACCA | -0.222
99 | GACTGCTC | -0.0916
100 | AAGTACGA | 0.0484

Row | Sequence | PBM E-score
101 | GGGACGGA | -0.275
102 | AGTGCTCC | -0.133
103 | AACCGATT | 0.259
104 | CGAACCAC | -0.00215
105 | ATGTATCA | 0.0654
106 | GAGTAATC | 0.112
107 | AAAATGTT | -0.123
108 | GTAAATCA | 0.144
109 | GCTGGACC | -0.0272
110 | AGAATCAG | 0.112
111 | CTGGGCTC | -0.0716
112 | CAATGGAC | 0.0146
113 | CTCGGGCC | 0.101
114 | ACTTAACT | 0.0856
115 | CGAGTCCA | -0.217
116 | CCCAGACC | -0.252
117 | GAGCGAAA | 0.203
118 | ATTTAGCG | 0.0428
119 | ACCACAAC | 0.119
120 | ACTGCATA | -0.0363
121 | GACTGCTA | -0.295
122 | CCGCCCAG | -0.0712
123 | CACACTAA | 0.0117
124 | GACCGTGC | -0.0942
125 | GTGAGCGA | -0.156

Copied from the list.
In PBM E-score, CCGCGGCC is listed with 0.374
In PBM E-score, TTAGAGAA is listed with -0.0611
In PBM E-score, CACGCATA is listed with -0.217
In PBM E-score, GACCGTGC is listed with -0.0942

Following part:

Row | Sequence | PBM E-score
126 | AGGCTGAA | 0.0246
127 | AAGGGTGA | -0.165
128 | CCGTCTCC | 0.118
129 | CAGGAGCG | -0.0783
130 | ACTCGTAT | -0.0263
131 | AGAGACCC | -0.203
132 | CACTTAGA | 0.0454
133 | GTAACAGA | 0.197
134 | CGTTACAA | 0.0624
135 | ATAACGAG | -0.0105
136 | GGACTCAA | -0.0284
137 | GGAACGCA | -0.0192
138 | CAAGCCCC | -0.228
139 | GAGCGGCA | 0.0139
140 | CAGTGACA | -0.178
141 | ATATAAAT | 0.305
142 | ACTAGCTG | -0.192
143 | AACCCAAA | 0.144
144 | CCCGCGAC | 0.0681
145 | AGTTAGCG | 0.0216
146 | AAAGTGTA | -0.178
147 | TTGAACAA | 0.0668
148 | TCGCTTAA | 0.00488
149 | AGACCGTA | -0.107
150 | CCCGGCAG | 0.131

Row | Sequence | PBM E-score
151 | CAAGGATC | 0.0621
152 | ACTAGATC | -0.0999
153 | ATGCGTGG | -0.302
154 | ATCCGTGA | 0.194
155 | ATCTAAGG | -0.165
156 | ACCTAACG | -0.165
157 | GACCTCGA | 0.0759
158 | CTCGTAAA | 0.137
159 | CATGTTTC | 0.266
160 | TGATTGAA | 0.132
161 | ATTTATCA | 0.258
162 | AGGCCCGA | -0.107
163 | ACGAAAGA | 0.0893
164 | CTCACTTA | 0.0247
165 | ATGACGCG | -0.0446
166 | CGCCCTAG | -0.0716
167 | CACGTGGA | -0.0537
168 | AACTGTCC | -0.00537
169 | AGCGGTGG | -0.192
170 | CAAGCTCA | -0.0534
171 | CGATTATA | 0.227
172 | AAGTCCTC | -0.0915
